Test: Endogenous pentapeptide bloodstream secretion in conscious adult male rats (RIA of plasma)
Format: in vivo, rat

Substance: QHNPR (tritiated proline; pyroglutamate/Gln1) [pentapeptide, final secretory maturation product of SMR1; used tritiated as (Glp1/Gln1)-His-Asn-(3,4 3H)Pro-Arg]
- basal plasma pentapeptide-immunoreactive level (10 week-old male rats, n=5): 1.9 ± 0.2 ng/mL
- physiological range of circulating pentapeptide (conscious adult male rats): 1-7 ng/ml
- plasma peptide-immunoreactive response (conscious male rats, 20-40 min post-injection of phenylephrine and isoproterenol, n=4): 12.5 ± 5.4 ng/mL
- immunoreactive pentapeptide circulating level (conscious rats, acute ether stress, n=4): 7.0 ± 4.1 ng/mL
- immunoreactive peptide fraction corresponding to free pentapeptide (plasma under pharmacological or acute stress-induced conditions, cation-exchange HPLC, n=6): 56±21%
